Over roughly 2,300 compounds, “plate-normalized OD600 growth (mean of duplicates)” has its median near 0.29; the lowest 2% begin near 0.22. Some of the results follow.
Tested on: Escherichia coli BW25113
Assay: plate-normalized OD600 growth (mean of duplicates) (OD600 (normalized)); higher = more growth (less inhibition)
Details: 10 µM
Protocol: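 E. coli BW25113 in LB (100 µl, 96-well, no shaking) was exposed to 10 µM of each compound from a ~30,000-member library and grown at 37°C for 24 h or 15°C for 48 h, in duplicate. Growth was read as OD600 and the duplicate ODs were normalized across screening plates to correct plate-to-plate variation. Hits were >3σ below the mean OD600 at 15°C and <2σ below the mean at 37°C.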

Row | Structure (SMILES) | plate-normalized OD600 growth (temperature: 15°C, 48 h) | plate-normalized OD600 growth (temperature: 37°C, 24 h)
1 | CCOC(=O)CN1NC2(CCC(C)CC2)NC1=S (configuration not stated) | 0.249 | 0.614
2 | O=C(CSc1nnnn1-c1ccccc1)NC1Cc2ccccc2C1 | 0.284 | 0.645
3 | O=C1CCC(C(=O)O)(c2ccccc2)C1 (configuration not stated) | 0.243 | 0.611
4 | COc1ccc(/C=C2/N=C(c3ccccc3)N(Cc3ccco3)C2=O)cc1 | 0.237 | 0.614
5 | Cc1cc(Cl)nc(NNC(=O)NC2CCCCC2)c1C#N | 0.244 | 0.607
6 | Cc1ccc(C(=O)Nc2cccc(C(=O)O)c2)cc1S(=O)(=O)N1CCCC1 | 0.222 | 0.622
7 | O=C(CCC(=O)Nc1cccc(Cl)c1)N/N=C/c1ccco1 | 0.259 | 0.629
8 | C/C(=N\Nc1ccccc1)c1cc(=O)n(-c2ccccn2)c(C)c1C(=O)Nc1ccccn1 | 0.244 | 0.617
9 | CC[C@@H]1C(=O)OC[C@@H]1Cc1cncn1C | 0.246 | 0.634
10 | Cc1nn(CC(=O)NNC(=O)COc2ccc(Cl)cc2Cl)c(C)c1Br | 0.235 | 0.607
11 | O=C(CCNc1n[nH]c(=O)[nH]c1=O)NCc1ccco1 | 0.233 | 0.645
12 | O=C(COc1ccccc1)Nc1cc(-c2nc3ncccc3o2)ccc1Cl | 0.222 | 0.614
13 | CCCOc1ccc(N2C(=O)CC(NNC(=O)c3ccc(Br)s3)C2=O)cc1 (configuration not stated) | 0.233 | 0.604
14 | O=C(COc1ccc(/C=N/NC(=O)CO)cc1)NCC1CCCO1 (configuration not stated) | 0.227 | 0.668
15 | O=C(CSc1nc2ccc(N3C(=O)c4ccc([N+](=O)[O-])cc4C3=O)cc2s1)Nc1ccccc1C(F)(F)F | 0.247 | 0.617
16 | O=C(NCCN1CCOCC1)c1c(O)c2ccccc2[nH]c1=O | 0.248 | 0.626
17 | N#Cc1ccccc1COc1ccc(/C=N\NC(=O)C(O)(c2ccccc2)c2ccccc2)cc1I | 0.25 | 0.618
18 | CC(=O)OCc1ccc(/C=C(\C#N)S(=O)(=O)c2ccc(Cl)cc2)o1 | 0.253 | 0.65
19 | CN(C)C=O.O=C(COc1ccc(Cl)cc1Cl)NNc1cc(N2CCOCC2)nc(N2CCOCC2)n1.O=C(COc1ccc(Cl)cc1Cl)NNc1cc(N2CCOCC2)nc(N2CCOCC2)n1.O=C(COc1ccc(Cl)cc1Cl)NNc1cc(N2CCOCC2)nc(N2CCOCC2)n1.O=C(COc1ccc(Cl)cc1Cl)NNc1cc(N2CCOCC2)nc(N2CCOCC2)n1.O=C(COc1ccc(Cl)cc1Cl)NNc1cc(N2CCOCC2)nc(N2CCOCC2)n1.O=C(COc1ccc(Cl)cc1Cl)NNc1cc(N2CCOCC2)nc(N2CCOCC2)n1.O=C(COc1ccc(Cl)cc1Cl)NNc1cc(N2CCOCC2)nc(N2CCOCC2)n1 | 0.247 | 0.604
20 | S=C1NCN(CCN2CCCC2)CN1 | 0.252 | 0.609
21 | CN1CCN(Cc2cn[nH]c2-c2ccccc2)CC1 | 0.228 | 0.63
22 | CCOC(=O)c1ccc(-c2ccc(/C=C(\C#N)C(=O)NC3CCCCC3)o2)cc1 | 0.241 | 0.604
23 | Cn1sc2cc([N+](=O)[O-])cc([N+](=O)[O-])c2c1=O | 0.252 | 0.619

Random excerpt: six entries already listed.
Row | Structure (SMILES) | plate-normalized OD600 growth (temperature: 15°C, 48 h) | plate-normalized OD600 growth (temperature: 37°C, 24 h)
12 | O=C(COc1ccccc1)Nc1cc(-c2nc3ncccc3o2)ccc1Cl | 0.222 | 0.614
16 | O=C(NCCN1CCOCC1)c1c(O)c2ccccc2[nH]c1=O | 0.248 | 0.626
14 | O=C(COc1ccc(/C=N/NC(=O)CO)cc1)NCC1CCCO1 (configuration not stated) | 0.227 | 0.668
19 | CN(C)C=O.O=C(COc1ccc(Cl)cc1Cl)NNc1cc(N2CCOCC2)nc(N2CCOCC2)n1.O=C(COc1ccc(Cl)cc1Cl)NNc1cc(N2CCOCC2)nc(N2CCOCC2)n1.O=C(COc1ccc(Cl)cc1Cl)NNc1cc(N2CCOCC2)nc(N2CCOCC2)n1.O=C(COc1ccc(Cl)cc1Cl)NNc1cc(N2CCOCC2)nc(N2CCOCC2)n1.O=C(COc1ccc(Cl)cc1Cl)NNc1cc(N2CCOCC2)nc(N2CCOCC2)n1.O=C(COc1ccc(Cl)cc1Cl)NNc1cc(N2CCOCC2)nc(N2CCOCC2)n1.O=C(COc1ccc(Cl)cc1Cl)NNc1cc(N2CCOCC2)nc(N2CCOCC2)n1 | 0.247 | 0.604
23 | Cn1sc2cc([N+](=O)[O-])cc([N+](=O)[O-])c2c1=O | 0.252 | 0.619
15 | O=C(CSc1nc2ccc(N3C(=O)c4ccc([N+](=O)[O-])cc4C3=O)cc2s1)Nc1ccccc1C(F)(F)F | 0.247 | 0.617

The listing continues:

Row | Structure (SMILES) | plate-normalized OD600 growth (temperature: 15°C, 48 h) | plate-normalized OD600 growth (temperature: 37°C, 24 h)
24 | Cc1ccc(N2CC(=O)N(/N=C/c3ccc(F)cc3)C2=S)cc1 | 0.232 | 0.63
25 | Cc1oc(S(=O)(=O)N(C)C)cc1C(=O)O | 0.236 | 0.608
26 | COc1ccc2oc(=O)c(C(=O)OCc3ccccc3)cc2c1 | 0.252 | 0.622
27 | CCCCC(CC)CNC(=O)C(=O)NCCc1ccc(OC)c(OC)c1 (configuration not stated) | 0.245 | 0.643
28 | Cc1cccc(C)c1NC(=O)CSc1ccc(C(F)(F)F)cn1 | 0.245 | 0.614
29 | C/C(=N/OC(=O)c1ccc(Cl)cc1)c1ccc(F)cc1 | 0.236 | 0.601
30 | CN=C1NC(=O)C(CC(=O)Nc2ccc(Cl)cc2)S1 (configuration not stated) | 0.249 | 0.631
31 | CC(=O)Cc1cnc2ncnn2c1 | 0.232 | 0.615
32 | S=C(NCCCn1ccnc1)Nc1cc(Cl)ccc1Cl | 0.259 | 0.619
33 | CN(C)c1ccc(C2NC(c3ccc(N(C)C)cc3)C(c3ccccc3)C(=O)C2c2ccccc2)cc1 (configuration not stated) | 0.262 | 0.624
34 | Cc1cc(=O)[nH]c(-c2ccccn2)n1 | 0.238 | 0.594
35 | O=C(CSc1nnnn1-c1ccc(OC(F)(F)F)cc1)Nc1ccc(OC(F)(F)F)cc1 | 0.258 | 0.617
36 | O=C(Oc1cc(S(=O)(=O)c2ccccc2)ccc1[N+](=O)[O-])c1ccc(Cl)cc1 | 0.259 | 0.623
37 | O=c1cc(-c2cccc3ccccc23)[nH][nH]1 | 0.26 | 0.631
38 | COC(=O)CSc1nc(N)cc(=O)[nH]1 | 0.247 | 0.605
39 | Cc1ccc(/C=N/Nc2nc3nonc3nc2Nc2ccc(I)cc2)o1 | 0.237 | 0.651
40 | COc1ccccc1NC(=O)N1CCCN(C(=O)c2cccs2)CC1 | 0.234 | 0.599
41 | O=C(NCCNc1ccc(C(F)(F)F)cc1[N+](=O)[O-])c1cccs1 | 0.246 | 0.606
42 | N#Cc1sccc1Br | 0.276 | 0.622
43 | CCCc1cnc(N2CCCN(C(=S)Nc3cccnc3)CC2)nc1 | 0.26 | 0.642
44 | COc1cccc(OC)c1C(C)(O)C(OC)OC (configuration not stated) | 0.244 | 0.627
45 | Cc1nnn(-c2nonc2N)c1C(=O)N/N=C/c1ccc(O)cc1O | 0.27 | 0.616
46 | COc1ccc(C2CC(=O)C3=C(C2)Nc2ccccc2N(C(=O)c2cccc(Cl)c2)C3c2cccs2)cc1 (configuration not stated) | 0.244 | 0.626

Row | Structure (SMILES) | plate-normalized OD600 growth (temperature: 15°C, 48 h) | plate-normalized OD600 growth (temperature: 37°C, 24 h)
47 | COc1ccc(C(=O)CN2CCN(c3cc(C)nc4ccccc34)CC2)cc1 | 0.264 | 0.623
48 | CC1=C(C(=O)Nc2ccc(Cl)cc2)C(c2ccco2)C(C#N)=C(SCc2ccccc2)N1 (configuration not stated) | 0.241 | 0.64
49 | COc1cc2ncnc(Nc3cccc(Cl)c3)c2cc1OC | 0.256 | 0.63
50 | CSc1nc2sc(C)c(C)c2c(=O)n1-c1ccccc1 | 0.219 | 0.653
51 | CC(=O)Nc1ccc(-c2nc3ccccc3o2)cc1 | 0.244 | 0.591
52 | CCN(CC)C(=S)Oc1ccc(C(=O)Nc2ccccc2)cc1 | 0.252 | 0.613
53 | CC(OCc1ccccc1)C(NC(=O)OC(C)(C)C)C(N)=O (configuration not stated) | 0.241 | 0.605
54 | COc1ccc(/C=C/C(=O)/C=C/c2ccc(OC)cc2)cc1 | 0.236 | 0.611
55 | CCCCOc1ccc(/C=N/NC(=O)c2c(C)nnn2-c2nonc2N)cc1 | 0.266 | 0.615
56 | O=C(O)c1ccc(S(=O)(=O)O)cc1N1C(=O)/C(=C/C=C/c2ccccc2)N=C1c1ccccc1 | 0.251 | 0.648
57 | O=C(N/N=C\c1cccc(OC(=O)c2ccco2)c1)/C(=C/c1ccc2c(c1)OCO2)NC(=O)c1ccccc1 | 0.245 | 0.621
58 | Clc1ccc(C2=CSC3=NCCCN23)cc1 | 0.238 | 0.619
59 | NC(=NS(=O)(=O)c1cc(C(F)(F)F)cc(C(F)(F)F)c1)c1cccs1 | 0.251 | 0.627
60 | O=C(O)c1oc(C(=O)O)c(OCc2ccccc2)c1OCc1ccccc1 | 0.263 | 0.637
61 | CC(C)Nc1nc(Cl)nc(Nc2cccc(C(F)(F)F)c2)n1 | 0.262 | 0.62
62 | O=C(O)c1ccc(-c2nc(-c3ccc4c(c3)C(=O)c3cc([N+](=O)[O-])ccc3-4)c(-c3ccccc3)[nH]2)cc1 | 0.256 | 0.648
63 | CCOC(=O)c1sc2sc(C(=O)c3ccc(Cl)cc3)c(C)c2c1C | 0.267 | 0.616
64 | Cc1ccc2nc(/C(C#N)=C/c3ccccc3F)[nH]c2c1 | 0.25 | 0.622
65 | CC(C)(C)OC(=O)NC(Cc1ccc(OCc2ccccc2)cc1)C(=O)O (configuration not stated) | 0.26 | 0.615
66 | CCOC(=O)/C(C(C)=O)=C1/SCC(C)S1 (configuration not stated) | 0.235 | 0.609
67 | Cc1ccc(S(=O)(=O)N2CCN(C(=O)Cc3ccccc3)CC2)c(C)c1 | 0.257 | 0.649
68 | CSc1ccccc1CNC(=O)NC12CC3CC(CC(C3)C1)C2 | 0.226 | 0.633
69 | N#CC1=C(N)C(C#N)(C#N)[C@@H](c2ccccc2F)[C@@H]2CN(Cc3ccccc3)CC=C12 | 0.25 | 0.603

Row | Structure (SMILES) | plate-normalized OD600 growth (temperature: 15°C, 48 h) | plate-normalized OD600 growth (temperature: 37°C, 24 h)
70 | COC(=O)c1ccc(C=Nc2ccc(Cl)cn2)cc1 | 0.229 | 0.608
71 | Cc1c(O)ccc(NC(=O)c2ccc(Br)cc2)c1C | 0.249 | 0.618
72 | COc1ccc(S(=O)(=O)N(Cc2ccccc2)c2ccccc2C(=O)N/N=C(\C)c2ccccc2O)cc1 | 0.259 | 0.618
73 | Clc1ccc(Cn2nnc(-c3ccccc3)n2)cc1 | 0.246 | 0.585
74 | Cc1cscc1C#N | 0.261 | 0.631
75 | N#CC1=C(C(C#N)c2nc3ccccc3s2)NC(N)=C(C(N)=O)C1 (configuration not stated) | 0.258 | 0.618
76 | CC(=N/O)/C(C)=C/c1ccc(Cl)cc1 | 0.253 | 0.618
77 | CCOC(=O)c1ccc(NC(=O)CSc2nnc3c4ccccc4n(CCc4ccccc4)c3n2)cc1 | 0.263 | 0.622
78 | C=CCn1c(SCC(=O)N2CCN(c3ccc(F)cc3)CC2)nnc1-c1cccs1 | 0.222 | 0.605
79 | BrCC1CCCCO1 (configuration not stated) | 0.281 | 0.663
80 | CCOc1ccc(CCN=C2CC(c3ccccc3)CC(=O)C2=C(O)CC)cc1OCC (configuration not stated) | 0.246 | 0.636
81 | O=C(CC1CCC1)Nc1cc(Cl)ccc1Cl | 0.256 | 0.619
82 | N#Cc1c(Cl)cccc1N1CCCC1 | 0.238 | 0.605
83 | NNC(=O)C1C2CCCCC21 (configuration not stated) | 0.244 | 0.627
84 | CC1(C)CC(=O)C(C=Nn2c(C(F)(F)F)nc3ccccc3c2=O)=C(O)C1 | 0.227 | 0.654
85 | COc1cc(OC)nc(N)n1 | 0.242 | 0.623
86 | Cc1cc(C)c([N+](=O)[O-])c(C)c1C1C(N)=C(C#N)OC2=C1C(=O)CC(C)(C)C2 (configuration not stated) | 0.262 | 0.621
87 | O=C1NCCN1c1ccncc1 | 0.241 | 0.662
88 | COC(=O)C1=C(N)N(c2ccc(F)cc2)C2=C(C(=O)CCC2)C1c1ccc2c(c1)OCO2 (configuration not stated) | 0.249 | 0.598
89 | COC(=O)CSCCc1nc(-c2ccc([N+](=O)[O-])cc2)cs1 | 0.252 | 0.613
90 | CCOC(=O)C1=C(CSc2nc(-c3cccs3)ccc2C#N)OC(N)=C(C#N)C1c1ccc(C#N)cc1 (configuration not stated) | 0.256 | 0.608
91 | CCCOC(=O)c1ccc(NC(=O)c2c(C)cc(C)cc2C)cc1 | 0.25 | 0.607
